Where a name gives a salt, the structure may show the parent alone. The list shows a part of the results. Most values lie at the level of the controls, where differences are scatter.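 Reh, a human leukemia cell line, is read out by flow cytometry as the median γH2AX antibody signal in S-phase cells; the score counts standard deviations from the median difference of each paired plate set. Scores above 2.5 were candidate hits; scores below -2 mark compounds lowering MK1775-induced damage.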
The compounds below were run on Reh (assay: Z' of S-phase gammaH2AX difference (drug + MK1775 minus drug alone) (Z-score); higher = stronger synergistic S-phase DNA damage with MK1775). Settings: MK1775 concentration 400 nM; first compound 10 µM; 4 h.

Row | Structure (SMILES) | Z' of S-phase gammaH2AX difference (Z-score)
1 | C=CCN1CC[C@]23c4c5ccc(O)c4O[C@H]2/C(=N/NC(=O)c2ccccc2)CC[C@@]3(O)[C@H]1C5 [Naloxone benzoylhydrazone] + C=CCn1c(=O)c2cnc(Nc3ccc(N4CCN(C)CC4)cc3)nc2n1-c1cccc(C(C)(C)O)n1 [MK1775] | inactive: 0.752
2 | O=c1[nH]c2ccccc2n1CCCN1CCC(n2c(=O)[nH]c3cc(Cl)ccc32)CC1 [Domperidone] + C=CCn1c(=O)c2cnc(Nc3ccc(N4CCN(C)CC4)cc3)nc2n1-c1cccc(C(C)(C)O)n1 [MK1775] | inactive: 1.64
3 | CC1=C[C@@H]2c3cccc4[nH]cc(c34)C[C@H]2N(C)C1 [Agroclavine] + C=CCn1c(=O)c2cnc(Nc3ccc(N4CCN(C)CC4)cc3)nc2n1-c1cccc(C(C)(C)O)n1 [MK1775] | inactive: 0.247
4 | S=C(NC1CCCCC1)N1CCC(c2cnc[nH]2)CC1 [Thioperamide maleate] + C=CCn1c(=O)c2cnc(Nc3ccc(N4CCN(C)CC4)cc3)nc2n1-c1cccc(C(C)(C)O)n1 [MK1775] | inactive: -0.315
5 | CCN(CC)C(=O)NC1CC2c3cccc4[nH]cc(c34)CC2N(C)C1 (stereo not drawn) [R(+)-Terguride] + C=CCn1c(=O)c2cnc(Nc3ccc(N4CCN(C)CC4)cc3)nc2n1-c1cccc(C(C)(C)O)n1 [MK1775] | inactive: -0.278
6 | CCN(CC)C(=O)N[C@H]1C=C2c3cccc4[nH]cc(c34)C[C@H]2N(C)C1 [R(+)-Lisuride hydrogen maleate] + C=CCn1c(=O)c2cnc(Nc3ccc(N4CCN(C)CC4)cc3)nc2n1-c1cccc(C(C)(C)O)n1 [MK1775] | inactive: 0.301
7 | NC(N)=NOCC[C@H](N)C(=O)O [L-Canavanine sulfate] + C=CCn1c(=O)c2cnc(Nc3ccc(N4CCN(C)CC4)cc3)nc2n1-c1cccc(C(C)(C)O)n1 [MK1775] | inactive: -0.00334
8 | COC[C@H]1OC(=O)c2coc3c2[C@@]1(C)C1=C(C3=O)[C@@H]2CCC(=O)[C@@]2(C)C[C@H]1OC(C)=O [Wortmannin from Penicillium funiculosum] + C=CCn1c(=O)c2cnc(Nc3ccc(N4CCN(C)CC4)cc3)nc2n1-c1cccc(C(C)(C)O)n1 [MK1775] | inactive: -1.96
9 | Clc1cnc(Oc2ccc(Oc3ncc(Cl)cc3Cl)cc2)c(Cl)c1 + C=CCn1c(=O)c2cnc(Nc3ccc(N4CCN(C)CC4)cc3)nc2n1-c1cccc(C(C)(C)O)n1 [MK1775] | inactive: -0.237
10 | CNCCc1ccc(O)c(O)c1 [N-Methyldopamine hydrochloride] + C=CCn1c(=O)c2cnc(Nc3ccc(N4CCN(C)CC4)cc3)nc2n1-c1cccc(C(C)(C)O)n1 [MK1775] | inactive: -0.483
11 | COc1ccc2c(c1)[C@]13CCCC[C@@H]1[C@H](C2)N(C)CC3 [Dextromethorphan hydrobromide monohydrate] + C=CCn1c(=O)c2cnc(Nc3ccc(N4CCN(C)CC4)cc3)nc2n1-c1cccc(C(C)(C)O)n1 [MK1775] | inactive: 1.32
12 | Cc1ccccc1-n1c(Cn2cnc3c(N)ncnc32)nc2cccc(C)c2c1=O + C=CCn1c(=O)c2cnc(Nc3ccc(N4CCN(C)CC4)cc3)nc2n1-c1cccc(C(C)(C)O)n1 [MK1775] | inactive: -0.289
13 | CN(N=O)c1ccc(O)c(O)c1 [Me-3,4-dephostatin] + C=CCn1c(=O)c2cnc(Nc3ccc(N4CCN(C)CC4)cc3)nc2n1-c1cccc(C(C)(C)O)n1 [MK1775] | inactive: -0.223
14 | CCCN1CCC[C@@H]2Cc3nc(N)ncc3C[C@H]21 [Quinelorane dihydrochloride] + C=CCn1c(=O)c2cnc(Nc3ccc(N4CCN(C)CC4)cc3)nc2n1-c1cccc(C(C)(C)O)n1 [MK1775] | inactive: 0.883
15 | C[C@]12CC[C@@H](O)C[C@@H]1CC[C@@H]1[C@@H]2CC[C@]2(C)C(=O)CC[C@@H]12 [Androsterone] + C=CCn1c(=O)c2cnc(Nc3ccc(N4CCN(C)CC4)cc3)nc2n1-c1cccc(C(C)(C)O)n1 [MK1775] | inactive: -0.174
16 | CC(Cc1ccc(O)cc1)NCC(O)c1cc(O)cc(O)c1 (stereo unspecified) [Fenoterol hydrobromide] + C=CCn1c(=O)c2cnc(Nc3ccc(N4CCN(C)CC4)cc3)nc2n1-c1cccc(C(C)(C)O)n1 [MK1775] | inactive: -0.308
17 | Cn1cnc(CCN)c1 [1-Methylhistamine dihydrochloride] + C=CCn1c(=O)c2cnc(Nc3ccc(N4CCN(C)CC4)cc3)nc2n1-c1cccc(C(C)(C)O)n1 [MK1775] | inactive: 0.456
18 | C1CCc2nnnn2CC1 [Pentylenetetrazole] + C=CCn1c(=O)c2cnc(Nc3ccc(N4CCN(C)CC4)cc3)nc2n1-c1cccc(C(C)(C)O)n1 [MK1775] | inactive: 1.35

Row | Structure (SMILES) | Z' of S-phase gammaH2AX difference (Z-score)
19 | CC(C)N(CCC(C(N)=O)(c1ccccc1)c1ccccn1)C(C)C (stereo unspecified) [Disopyramide phosphate] + C=CCn1c(=O)c2cnc(Nc3ccc(N4CCN(C)CC4)cc3)nc2n1-c1cccc(C(C)(C)O)n1 [MK1775] | inactive: 0.284
20 | CC(C)N(CCC(C(N)=O)(c1ccccc1)c1ccccn1)C(C)C (stereo unspecified) [Disopyramide] + C=CCn1c(=O)c2cnc(Nc3ccc(N4CCN(C)CC4)cc3)nc2n1-c1cccc(C(C)(C)O)n1 [MK1775] | inactive: 0.901
21 | N=C(N)NN [Aminoguanidine hemisulfate] + C=CCn1c(=O)c2cnc(Nc3ccc(N4CCN(C)CC4)cc3)nc2n1-c1cccc(C(C)(C)O)n1 [MK1775] | inactive: -0.281
22 | N=C(N)NN [Aminoguanidine hydrochloride] + C=CCn1c(=O)c2cnc(Nc3ccc(N4CCN(C)CC4)cc3)nc2n1-c1cccc(C(C)(C)O)n1 [MK1775] | inactive: 0.575
23 | C=CCN1C[C@H](C)N([C@H](c2ccc(C(=O)N(CC)CC)cc2)c2cccc(OC)c2)C[C@H]1C + C=CCn1c(=O)c2cnc(Nc3ccc(N4CCN(C)CC4)cc3)nc2n1-c1cccc(C(C)(C)O)n1 [MK1775] | inactive: -0.14
24 | C[C@]12CC[C@@H](O)C[C@@H]1CC[C@@H]1[C@@H]2CC[C@]2(C)[C@@H](O)CC[C@@H]12 [5alpha-Androstane-3alpha,17beta-diol] + C=CCn1c(=O)c2cnc(Nc3ccc(N4CCN(C)CC4)cc3)nc2n1-c1cccc(C(C)(C)O)n1 [MK1775] | inactive: -0.287
25 | CC(Cc1ccc(OCC(=O)O)cc1)NCC(O)c1cccc(Cl)c1 (stereo unspecified) + C=CCn1c(=O)c2cnc(Nc3ccc(N4CCN(C)CC4)cc3)nc2n1-c1cccc(C(C)(C)O)n1 [MK1775] | inactive: -0.0401
26 | OC1CCCCC1N1CCC(c2ccccc2)CC1 (stereo unspecified) [(?)-Vesamicol hydrochloride] + C=CCn1c(=O)c2cnc(Nc3ccc(N4CCN(C)CC4)cc3)nc2n1-c1cccc(C(C)(C)O)n1 [MK1775] | inactive: 0.874
27 | N[C@@H](Cc1ccc(N(CCCl)CCCl)cc1)C(=O)O [Melphalan] + C=CCn1c(=O)c2cnc(Nc3ccc(N4CCN(C)CC4)cc3)nc2n1-c1cccc(C(C)(C)O)n1 [MK1775] | inactive: -0.563
28 | O=[N+]([O-])c1cc(O)c(O)c([N+](=O)[O-])c1 [3,5-Dinitrocatechol] + C=CCn1c(=O)c2cnc(Nc3ccc(N4CCN(C)CC4)cc3)nc2n1-c1cccc(C(C)(C)O)n1 [MK1775] | inactive: -0.517
29 | CN[C@@H]1C[C@@H](c2ccc(Cl)c(Cl)c2)c2ccccc21 [Indatraline hydrochloride] + C=CCn1c(=O)c2cnc(Nc3ccc(N4CCN(C)CC4)cc3)nc2n1-c1cccc(C(C)(C)O)n1 [MK1775] | inactive: -0.00243
30 | CN1[C@@H]2CC[C@H]1C[C@@H](OC(=O)[C@H](CO)c1ccccc1)C2 [L-Hyoscyamine] + C=CCn1c(=O)c2cnc(Nc3ccc(N4CCN(C)CC4)cc3)nc2n1-c1cccc(C(C)(C)O)n1 [MK1775] | inactive: 0.144
31 | CN(C)CCN(C)CCc1ccc(Cl)c(Cl)c1 + C=CCn1c(=O)c2cnc(Nc3ccc(N4CCN(C)CC4)cc3)nc2n1-c1cccc(C(C)(C)O)n1 [MK1775] | inactive: -0.112
32 | C[C@H](N)CN1CCc2ccc(Br)cc21 [VER-3323 hemifumarate salt] + C=CCn1c(=O)c2cnc(Nc3ccc(N4CCN(C)CC4)cc3)nc2n1-c1cccc(C(C)(C)O)n1 [MK1775] | inactive: -0.00485
33 | C=C(C)[C@H]1CN[C@H](C(=O)O)[C@H]1CC(=O)O [Kainic acid] + C=CCn1c(=O)c2cnc(Nc3ccc(N4CCN(C)CC4)cc3)nc2n1-c1cccc(C(C)(C)O)n1 [MK1775] | inactive: 1.31
34 | N[C@@H](Cn1ccc(=O)[nH]c1=O)C(=O)O [S(-)-Willardiine] + C=CCn1c(=O)c2cnc(Nc3ccc(N4CCN(C)CC4)cc3)nc2n1-c1cccc(C(C)(C)O)n1 [MK1775] | inactive: 0.755
35 | CC12CCC3C(CCC4=C(O)C(=O)CCC43C)C1CCC2=O (stereo unspecified) [4-Androsten-4-ol-3,17-dione] + C=CCn1c(=O)c2cnc(Nc3ccc(N4CCN(C)CC4)cc3)nc2n1-c1cccc(C(C)(C)O)n1 [MK1775] | inactive: -0.454
36 | O=[N+]([O-])c1ccc2nc(N3CCNCC3)ccc2c1 [Quipazine, 6-nitro-, maleate] + C=CCn1c(=O)c2cnc(Nc3ccc(N4CCN(C)CC4)cc3)nc2n1-c1cccc(C(C)(C)O)n1 [MK1775] | inactive: -0.325

Given as a markdown table: part of the list above

| Row | Structure (SMILES) | Z' of S-phase gammaH2AX difference (Z-score) |
| --- | --- | --- |
| 23 | C=CCN1C[C@H](C)N([C@H](c2ccc(C(=O)N(CC)CC)cc2)c2cccc(OC)c2)C[C@H]1C + C=CCn1c(=O)c2cnc(Nc3ccc(N4CCN(C)CC4)cc3)nc2n1-c1cccc(C(C)(C)O)n1 [MK1775] | inactive: -0.14 |
| 26 | OC1CCCCC1N1CCC(c2ccccc2)CC1 (stereo unspecified) [(?)-Vesamicol hydrochloride] + C=CCn1c(=O)c2cnc(Nc3ccc(N4CCN(C)CC4)cc3)nc2n1-c1cccc(C(C)(C)O)n1 [MK1775] | inactive: 0.874 |
| 34 | N[C@@H](Cn1ccc(=O)[nH]c1=O)C(=O)O [S(-)-Willardiine] + C=CCn1c(=O)c2cnc(Nc3ccc(N4CCN(C)CC4)cc3)nc2n1-c1cccc(C(C)(C)O)n1 [MK1775] | inactive: 0.755 |
